Measured values taken from patent US20250360138A1 (priority 2022, published 2025).

System: HEK293T
Assay: Mammalian cytotoxicity counter screen, luminescent ATP viability assay
Format: cell-based, human
Details: toxicity in mammalian cell cultures versus G. lamblia GS-clone 7 trophozoites

## CS(=O)(=O)OCCN(CCBr)c1c(C(=O)NCCOP(=O)(O)O)cc([N+](=O)[O-])cc1[N+](=O)[O-] [PR-104]
  Selectivity index (SI), CC50/EC50: > 13

## CC(=O)C[C@H]1CCCCN1 [pelletierine]
  Selectivity index (SI), CC50/EC50: > 1
